Earlier results in patent publication US20050053704A1, “Acidic composition and its uses” (Mionix Corporation, priority 2003, published 2005).
Some entries share one result that the patent states for a list of compounds. Some compounds share one range, which may span the group rather than tell each member.

system: L. monocytogenes; details: 2 minute dip in 1% acid; survivors grew during refrigerated storage (Palumbo and Williams 1994); cited from earlier work

SMILES | Kill of L. monocytogenes on artificially contaminated frankfurters
O=C(O)CC(O)(CC(=O)O)C(=O)O [citric acid] | 1-2 log
CC(O)C(=O)O (stereo not drawn) [lactic acid] | 1-2 log
O=C(O)C(O)C(O)C(=O)O (stereo not drawn) [tartaric acid] | 1-2 log
